# The list shows a part of the results. Further columns of the screen follow, without active or inactive calls. Most of these compounds were active or inconclusive in the main read-out, so they are no random draw. Potencies come from curve fits of mixed quality, noted in brackets.
# Experiment: qHTS Assay to Find Inhibitors of Chronic Active B-Cell Receptor Signaling
# Conditions: ABC-DLBCL IkBa-CBG/CBR reporter, luminescence ratio (green luciferase fused to IkBa over red control in TMD8 lymphoma cells), 4 h
# Outline: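 Compounds up to 46 uM were incubated four hours with TMD8 cells whose green CBG68 luciferase is fused to IkappaBalpha; red CBR luminescence normalised the signal, and concentration-effect curves were fitted to fusion, red and ratio data.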
# [1] = measured here: IkBa-CBG green luminescence
# [2] = measured here: CBR red luminescence, cell number
Compound,AC50 [1],AC50 [2]
COc1cc2c(cc1OC)C(SC)=NC(C)(C)C2,"18.4 µM [falling, partial curve, poor fit]",
Oc1ccc(Cl)cc1/C=C/c1ccc2cccc(O)c2n1,"28.2 µM [falling, single point]","11.2 µM [rising, partial curve]"
COc1ccc(-c2nnc(SCC(=O)NCc3cccs3)n2CC(C)C)cc1,,"3.66 µM [falling, partial curve, poor fit]"
Cc1ccc(S(=O)(=O)N(CCc2ccccc2)CC(=O)Nc2cc(C)ccc2C)cc1,,"0.562 µM [rising, full curve, poor fit]"
Cc1cc(F)ccc1NS(=O)(=O)c1c(C)nc2scc(C)n2c1=O,,"6.31 µM [rising, single point]"
CC(C)OCCCN(CC(O)c1ccccc1)CC(O)c1ccccc1 (centres undefined),,"4.61 µM [rising, full curve, poor fit]"
C=CCn1c(COc2ccc(Cl)cc2)nnc1SCc1ccc(C#N)cc1,,"14.1 µM [falling, single point]"
COc1c2ccoc2c(OC(C)=O)c2oc(C)cc(=O)c12,,"5.01 µM [rising, full curve, poor fit]"
COc1ccc(-c2cc(-c3ccccc3)c(C#N)c(S(C)(=O)=O)n2)cc1,,"29.1 µM [rising, single point]"
Cc1ccc(CN2CCN(CC(=O)NCc3ccc(Cl)cc3)C2=O)cc1,,"11.6 µM [falling, single point]"
CCOC(=O)c1c(N)sc(C(C)=O)c1C,"17.8 µM [falling, partial curve, poor fit]",
Cc1nc(NC(=O)c2ccccc2)sc1-c1csc(Nc2cccc(Cl)c2)n1,,"0.398 µM [rising, partial curve, poor fit]"
COc1ccc2c(c1OC)C(=O)N(c1cccc(C(F)(F)F)c1)C2,,"2.06 µM [rising, full curve, poor fit]"
O=C(C1CCCO1)N1CCC(O)(c2ccccc2)CC1 (centres undefined),,"0.708 µM [rising, partial curve]"
CC(=O)Oc1ccc(OC(C)=O)c2c1CC(C)=C(C)C2,,"10 µM [falling, partial curve]"
COc1ccc(Cl)cc1N=Cc1c(O)c2ccccc2oc1=O,,"2.51 µM [falling, full curve, poor fit]"
O=C(O)c1cc(N/N=C/C=C/c2ccccc2[N+](=O)[O-])ccc1Cl,,"15.8 µM [falling, partial curve]"
Fc1ccccc1Nc1nc2ccccc2n2nnnc12,,"0.13 µM [falling, full curve]"

# Two compounds drawn at random from the list so far:
Compound,AC50 [1],AC50 [2]
CC(=O)Oc1ccc(OC(C)=O)c2c1CC(C)=C(C)C2,,"10 µM [falling, partial curve]"
COc1ccc2c(c1OC)C(=O)N(c1cccc(C(F)(F)F)c1)C2,,"2.06 µM [rising, full curve, poor fit]"

# Reference: PubChem BioAssay AID493014 (National Center for Advancing Translational Sciences (NCATS), 2011)
